In PubChem BioAssay AID1487 (National Center for Advancing Translational Sciences (NCATS), 2009):
This is one part of the list. Shown are side measurements of this screen, not its main read-out; they come without a call. Most of these compounds were active or inconclusive in the main read-out, so they are no random draw. Potencies come from curve fits of mixed quality, noted in brackets.

Assay: qHTS Assay for Modulators of Lamin A Splicing
Conditions: HeLa LMNA splicing GFP/RFP minigene ratio, 48 h
In short: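 Read-out is the ratio of GFP to DsRed2 object intensity, acquired by 488 nm laser-scanning cytometry on HeLa lamin A-EGFP minigene reporter cells. Compound incubation 48 hrs at 37 °C in Opti-MEM with 2% FBS; DMSO 0.5% final.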

[1] = measured here: GFP splicing reporter channel
[2] = measured here: RFP viability control channel

SMILES | AC50 [1] | AC50 [2]
COc1ccc(-c2noc(COc3ccc(C)cc3C)n2)cc1OC | 5.62 µM [falling, partial curve, poor fit] | –
CCOC(=O)c1sc(=NC(=O)c2cccc(OC)c2)n(C)c1C | – | 10 µM [rising, single point]
O=[N+]([O-])c1cccc(CN(CCO)Cc2ccccc2)c1 | – | 35.5 µM [falling, single point]
Fc1ccc(-c2cn3cc(C(F)(F)F)cc(Cl)c3n2)cc1 | – | 35.5 µM [falling, single point]
Cn1nc(CC(=O)NC2CCCCCC2)c2ccccc2c1=O | – | 14.1 µM [rising, single point]
CCOc1ccc(NC(=S)N2CCCN(Cc3cc(C)ccc3C)C2)cc1 | 35.5 µM [falling, single point] | 35.5 µM [falling, single point]
NC(=O)COC(=O)/C=C/c1ccccc1[N+](=O)[O-] | – | 10 µM [rising, partial curve, poor fit]
CCc1c(C)nc2ncnn2c1N1CCCC(C(=O)NCCc2ccccc2)C1 (centres undefined) | 14.1 µM [rising, single point] | 20 µM [rising, single point]
CCOc1ccc(NC(=S)NCCCc2ccccc2)cc1 | – | 2.24 µM [falling, partial curve, poor fit]
O=C(NC1CCCC1)C(c1ccc(O)cc1)N(CC1CCCO1)C(=O)C1COc2ccccc2O1 (centres undefined) | 11.2 µM [rising, partial curve, poor fit] | 10 µM [rising, partial curve, poor fit]
Cc1cccc(-c2nc(C)c(CCNC(=O)C(=O)Nc3c(C)cc(C)cc3C)s2)c1 | – | 3.16 µM [falling, partial curve, poor fit]
COc1cc2c(cc1OC)C(C)N(C(=O)c1ccc(Br)o1)CC2 (centres undefined) | 17.8 µM [rising, single point] | 22.4 µM [rising, single point]
CCOP(=O)(c1ccccc1)c1nc(-c2ccccc2Cl)oc1N1CCCCC1 (centres undefined) | 35.5 µM [falling, single point] | 35.5 µM [falling, single point]
NC(=O)C(=O)N/N=C/c1ccc([N+](=O)[O-])o1 | 2.82 µM [falling, single point] | –
CCc1[nH]nc2c1C1(CCOC1C)C(C#N)=C(N)O2 (centres undefined) | 3.55 µM [rising, single point] | 5.62 µM [rising, single point]
CC(C)CNC(=O)c1cccc(NC(=O)Cc2ccc(Br)cc2)c1 | 0.0398 µM [rising, full curve, poor fit] | 20 µM [rising, single point]
C=C(C)c1cccc(C(C)(C)NC(=O)Nc2ccc(C(C)=O)cc2)c1 | – | 35.5 µM [rising, single point]
O=C(O)c1ccc(Cl)c(S(=O)(=O)Nc2ccccc2N2CCOCC2)c1 | 6.31 µM [rising, partial curve, poor fit] | 0.02 µM [rising, full curve]
C/C=C/c1ccc(OCC(=O)Nc2ccc(OC)c(OC)c2)c(OC)c1 | – | 35.5 µM [rising, single point]

SMILES | AC50 [1] | AC50 [2]
Cc1sc(NC(=O)c2ccco2)c(C(=O)c2ccc(Cl)cc2)c1C | 35.5 µM [rising, single point] | 35.5 µM [rising, single point]
CCOc1ccccc1C(=O)N(C)Cc1cc2ccccc2[nH]c1=O | – | 7.08 µM [rising, partial curve, poor fit]
Cc1nn(Cc2ccccc2Cl)c2sc(C(=O)Nc3nccs3)cc12 | 6.31 µM [rising, single point] | –
CCOC(=O)C1=C(NC(=S)NC(=O)c2ccccc2)c2ccccc2CC1(C)CC (centres undefined) | 12.6 µM [rising, partial curve] | 11.2 µM [rising, partial curve]
Cc1cccc(-c2nc(CS(=O)CC(=O)NC3CCCC3)c(C)o2)c1 (centres undefined) | – | 15.8 µM [rising, single point]
O=c1cc(-c2ccccc2)nc(SCc2ccccc2F)[nH]1 | – | 0.0501 µM [falling, partial curve]
Cc1sc(N)c(C(=O)c2ccccc2)c1C | 0.00891 µM [falling, full curve, poor fit] | 0.0355 µM [falling, full curve, poor fit]
O=C(CS(=O)(=O)c1ccccc1)N1CCc2ccccc21 | 0.158 µM [rising, full curve, poor fit] | –
COc1ccc(-c2csc(NS(=O)(=O)c3ccc([N+](=O)[O-])cc3)n2)cc1 | 0.0282 µM [rising, full curve, poor fit] | 22.4 µM [rising, single point]
COc1cc2c(cc1NC(=O)c1ccc(C)c([N+](=O)[O-])c1)oc1ccccc12 | – | 25.1 µM [rising, single point]
N#Cc1nc(COc2ccc(-c3ccccc3)cc2)oc1NCc1cccnc1 | 12.6 µM [rising, partial curve] | 35.5 µM [rising, single point]
O=C(Oc1ccc2c(=O)c(Oc3ccc4ccccc4c3)coc2c1)c1ccco1 | – | 20 µM [rising, partial curve]
COCc1nc2ccccc2n1CCOc1ccccc1OC | – | 31.6 µM [rising, single point]
CN1C(=S)N(c2cccnc2)C(=O)/C1=C\c1ccc(C(C)(C)C)cc1 | – | 0.112 µM [rising, full curve, poor fit]
N=C1S/C(=C\c2ccco2)C(=O)N1c1nccs1 | – | 15.8 µM [rising, partial curve]
Cc1cccc(N=C2NC(=O)S/C2=C\c2ccco2)c1 | – | 22.4 µM [rising, single point]
Cc1cccc(NC(=O)C2CCCN(S(=O)(=O)c3cccc4nsnc34)C2)c1 (centres undefined) | – | 12.6 µM [rising, single point]
COc1ccc(N2CCN(C(=O)CCc3ccc(S(=O)(=O)NCC(C)C)cc3)CC2)cc1 | – | 11.2 µM [rising, partial curve]
CCc1nn2c(=O)cc(COC(=O)c3cccc(NC(=O)COc4ccccc4F)c3)nc2s1 | – | 35.5 µM [rising, single point]

SMILES | AC50 [1] | AC50 [2]
Cc1cccc(NC(=O)CSc2nc(C)cc(C)c2C(=O)Nc2ccc(Cl)cc2)c1 | 5.62 µM [rising, partial curve, poor fit] | –
CCOC(=O)N1CCN(C(=O)c2ccc(C)c(S(=O)(=O)Nc3ccccc3)c2)CC1 | 4.47 µM [rising, partial curve, poor fit] | 17.8 µM [rising, partial curve, poor fit]
CCOc1ccccc1N(C)C(=O)c1cc(S(=O)(=O)NCc2ccc(C)cc2)ccc1F | – | 35.5 µM [falling, single point]
Nc1ncnc(NNC(=O)CNC(=O)c2c(F)cccc2Cl)c1[N+](=O)[O-] | – | 6.31 µM [falling, partial curve, poor fit]
O=S(=O)(Nc1ccc2c(c1)nc1n2CCOC1)c1ccc(Cl)cc1 | 12.6 µM [rising, single point] | 14.1 µM [rising, single point]
OCc1ccccc1O | 0.0141 µM [falling, full curve, poor fit] | –
COc1ccccc1N1CCN(CC(=O)c2c(C)[nH]c3cc(C)ccc23)CC1 | – | 7.94 µM [rising, partial curve, poor fit]
CC1CN(CC(=O)Nc2ccccc2Sc2ccccc2)CC(C)O1 (centres undefined) | – | 22.4 µM [rising, single point]
CC(c1ccon1)N(C)C(=O)c1ccc(OC2CCN(C(=O)C3CC3)CC2)cc1 (centres undefined) | – | 35.5 µM [falling, single point]
N.N.N.N.N.N.N.N.N.N.N.N.N.N.O.O.[Cl-].[Cl-].[Cl-].[Cl-].[Cl-].[Cl-].[Ru].[Ru].[Ru] | – | 2.51 µM [falling, single point]
CCOc1ccc(-c2nc(CSCC(=O)NCCc3ccccc3)c(C)o2)cc1 | 0.355 µM [rising, full curve, poor fit] | –
CC1Cc2nc(SCC(=O)N3CCCc4ccccc43)n(C)c(=O)c2S1 (centres undefined) | – | 11.2 µM [rising, partial curve, poor fit]
CCN1CCN(c2cc(C)c3cc(NC(=O)c4cc(OC)c(OC)c(OC)c4)ccc3n2)CC1 | – | 28.2 µM [rising, single point]
COc1ccc(NC(=O)CN2CCN(c3nc(-c4ccc(F)cc4)cs3)CC2)c(OC)c1 | 0.891 µM [falling, full curve, poor fit] | 1.41 µM [falling, partial curve]
c1csc(C2Nc3ccccc3-c3nc4ccccc4n32)c1 (centres undefined) | 11.2 µM [rising, partial curve] | 20 µM [rising, partial curve, poor fit]
COC(=O)CC1COc2ccccc2N1C(=O)c1cccc(C(F)(F)F)c1 (centres undefined) | 35.5 µM [falling, single point] | 0.0224 µM [falling, full curve, poor fit]
COc1ccc(-c2cc(C(C)=O)c(C)n2CCC(=O)Nc2cccc(C)c2C)cc1 | – | 0.00447 µM [falling, full curve, poor fit]
CC(C)c1ccc2[nH]c(O)c(N=NC(=S)NCCc3ccccc3)c2c1 | – | 0.398 µM [rising, partial curve, poor fit]

Part of the list above, reformatted:
CCOC(=O)N1CCN(C(=O)c2ccc(C)c(S(=O)(=O)Nc3ccccc3)c2)CC1
  AC50 [1]: 4.47 µM [rising, partial curve, poor fit]; AC50 [2]: 17.8 µM [rising, partial curve, poor fit]
COc1ccc(-c2cc(C(C)=O)c(C)n2CCC(=O)Nc2cccc(C)c2C)cc1
  AC50 [2]: 0.00447 µM [falling, full curve, poor fit]
